Assay results published in EPA's CvTdb concentration-time database.
Where “and” joins values, the source holds several entries; their conditions need not be identical. Equal entries are not always repeated. The source gives many values for each of these; only a part stands here.

Tests used:
Assay in all cases: concentration in plasma after dosing
Mouse [1] = settings: 5 min; dosed: 2-Hydroxy-4-methoxybenzophenone; 50 mg/kg; iv; Male; B6C3F1
Mouse [2] = settings: dosed: 2-Hydroxy-4-methoxybenzophenone, B6C3F1
Rat [3] = tested on: Rat
Rat [4] = settings: dosed: 2-Hydroxy-4-methoxybenzophenone, 8 mg/kg, iv, Female, F344
Mouse [5] = settings: 0.5 h; dosed: 2-Hydroxy-4-methoxybenzophenone; 50 mg/kg; iv; Male; B6C3F1
Rat [6] = settings: dosed: Perfluorohexanoic Acid, 80 mg/kg, oral, Female, Harlan Sprague Dawley
Rat [7] = settings: dosed: Perfluorohexanoic Acid, 40 mg/kg, Female, Harlan Sprague Dawley
Mouse [8] = settings: 5 h; dosed: 2-Hydroxy-4-methoxybenzophenone; 250 mg/kg; oral; Female; B6C3F1
Mouse [9] = settings: 5 min; dosed: 2-Hydroxy-4-methoxybenzophenone; 50 mg/kg; iv; Male; B6C3F1; remark: listed apart in the source
Rat [10] = settings: dosed: 2-Hydroxy-4-methoxybenzophenone, 500 mg/kg, oral, Female, F344
Rat [11] = settings: dosed: 2-Hydroxy-4-methoxybenzophenone, 100 mg/kg, oral, Male, F344
Rat [12] = settings: dosed: 2-Hydroxy-4-methoxybenzophenone, 250 mg/kg, oral, Female, F344

COc1ccc(C(=O)c2ccccc2)c(O)c1 [2-Hydroxy-4-methoxybenzophenone]
Settings	concentration in plasma [ng/mL]
Mouse [1]	28200
Mouse [5]	2570

concentration in plasma, Mouse [2]
Settings	Female	Male
0.5 h, 50 mg/kg, iv	3100 ng/mL	2820 ng/mL
0.5 h, 100 mg/kg, oral	47.5 ng/mL	53.3 ng/mL
0.5 h, 250 mg/kg, oral	2010 ng/mL	319 ng/mL
0.5 h, 500 mg/kg, oral	889 ng/mL	532 ng/mL
0.75 h, 100 mg/kg, oral	24.1 ng/mL	50.2 ng/mL
1 h, 50 mg/kg, iv	811 ng/mL	1030 ng/mL
1 h, 100 mg/kg, oral	20.6 ng/mL	50.6 ng/mL
1 h, 250 mg/kg, oral	82.8 ng/mL	97.4 ng/mL
1 h, 500 mg/kg, oral	3450 ng/mL	1460 ng/mL
1.5 h, 50 mg/kg, iv	495 ng/mL	442 ng/mL
1.5 h, 100 mg/kg, oral	48.1 ng/mL	26.9 ng/mL
1.5 h, 250 mg/kg, oral	55.1 ng/mL	68.9 ng/mL
2.5 min, 250 mg/kg, oral	18.2 ng/mL	–
2.5 min, 500 mg/kg, oral	3060 ng/mL	570 ng/mL
4 h, 50 mg/kg, iv	76.8 ng/mL	73.1 ng/mL
4 h, 100 mg/kg, oral	11.4 ng/mL	15 ng/mL
4 h, 250 mg/kg, oral	36.5 ng/mL	64.5 ng/mL
4 h, 500 mg/kg, oral	67.1 ng/mL	79.8 ng/mL
5 h, 100 mg/kg, oral	9.92 ng/mL	17.4 ng/mL
5 h, 250 mg/kg, oral	34.3 ng/mL	28.8 ng/mL
5 min, 50 mg/kg, iv	19100 ng/mL	38600 ng/mL
5 min, 100 mg/kg, oral	61.5 ng/mL	17 ng/mL
5 min, 250 mg/kg, oral	79.8 ng/mL	65.2 ng/mL
5 min, 500 mg/kg, oral	125 ng/mL	62.2 ng/mL
6 h, 50 mg/kg, iv	31.2 ng/mL	57.7 ng/mL
6 h, 100 mg/kg, oral	7 ng/mL	20.1 ng/mL
6 h, 250 mg/kg, oral	84 ng/mL	15.8 ng/mL
6 h, 500 mg/kg, oral	58 ng/mL	29.6 ng/mL
7 h, 250 mg/kg, oral	7.85 ng/mL	16.5 ng/mL
8 h, 50 mg/kg, iv	19.7 ng/mL	31.2 ng/mL
8 h, 500 mg/kg, oral	35.2 ng/mL	43.3 ng/mL
10 h, 500 mg/kg, oral	50.6 ng/mL	17.1 ng/mL
12 h, 50 mg/kg, iv	11 ng/mL	12.4 ng/mL
12 h, 500 mg/kg, oral	20.6 ng/mL and 9.67 ng/mL	17.1 ng/mL
16 h, 50 mg/kg, iv	20.4 ng/mL	18.2 ng/mL
16 h, 500 mg/kg, oral	5.14 ng/mL	–

concentration in plasma [ng/mL], Rat [3], dosed: 2-Hydroxy-4-methoxybenzophenone, F344
Settings	Female	Male
0.5 h, 8 mg/kg, iv	583	625
0.5 h, 100 mg/kg, oral	46.6	60.2
0.5 h, 250 mg/kg, oral	435	141
0.5 h, 500 mg/kg, oral	276	172
1 h, 8 mg/kg, iv	229	248
1 h, 100 mg/kg, oral	43.4	130
1 h, 250 mg/kg, oral	335	305
1 h, 500 mg/kg, oral	1940	1430
1.5 h, 8 mg/kg, iv	111	131
1.5 h, 100 mg/kg, oral	139	50.2
1.5 h, 250 mg/kg, oral	278	276
2 h, 100 mg/kg, oral	19.4	57.7
2 h, 250 mg/kg, oral	53.9	275
2 h, 500 mg/kg, oral	410	850
2.5 min, 100 mg/kg, oral	67.7	10.5
2.5 min, 250 mg/kg, oral	12.4	20.2
4 h, 8 mg/kg, iv	–	53.5
4 h, 500 mg/kg, oral	120	–
5 h, 100 mg/kg, oral	9.43	14.4
5 min, 8 mg/kg, iv	4360	8120
5 min, 100 mg/kg, oral	12.4	5.98
5 min, 250 mg/kg, oral	35.9	27.4
5 min, 500 mg/kg, oral	29.3	17.7
6 h, 8 mg/kg, iv	16.2	18.6
6 h, 100 mg/kg, oral	–	16.5
6 h, 250 mg/kg, oral	12.8	30.3
6 h, 500 mg/kg, oral	98	–
8 h, 8 mg/kg, iv	11.9	19.8
8 h, 100 mg/kg, oral	24.2	9.92
8 h, 250 mg/kg, oral	12.8	35.6
8 h, 500 mg/kg, oral	111	242
10 h, 8 mg/kg, iv	18.1	–
10 h, 250 mg/kg, oral	15.9	28.5
10 h, 500 mg/kg, oral	–	145
12 h, 8 mg/kg, iv	6.04	–
12 h, 500 mg/kg, oral	33.8	42.7
16 h, 8 mg/kg, iv	8.64	7.13
16 h, 500 mg/kg, oral	26.1	16.6
25 min, 250 mg/kg, oral	–	25.6

Rat [4]
Settings	concentration in plasma [ng/mL]
0.5 h	598
6 h	15.2

O=C(O)C(F)(F)C(F)(F)C(F)(F)C(F)(F)C(F)(F)F [Perfluorohexanoic Acid]
concentration in plasma [ng/mL], Rat [3], dosed: Perfluorohexanoic Acid, 40 mg/kg
Settings	0.25 h	0.5 h	0.75 h	1 h	1.5 h	3 h	5 min	6 h	12 h	24 h
Female, Harlan Sprague Dawley	139000	56900	38000	38100	–	–	–	93.4	36.1	–
Male, F344	169000	131000	68000	76500	44100	15800	295000	5050	555	1550
Male, Harlan Sprague Dawley	–	–	–	–	31100	–	–	–	–	–

concentration in plasma [ng/mL], Rat [3], dosed: Perfluorohexanoic Acid, oral, Harlan Sprague Dawley
Settings	0.25 h	0.5 h	0.75 h	1 h	3 h	5 min	6 h	9 h	12 h	24 h
40 mg/kg, Female	45000	31200	54100	–	–	–	11400	412	32.5	–
40 mg/kg, Male	39200	–	–	44500	16200	17900	15000	–	–	–
80 mg/kg, Female	42500	64200	101000	101000	24200	52600	10700	316	133	28.7
80 mg/kg, Male	–	–	–	–	–	–	25500	–	5190	–
160 mg/kg, Female	161000	181000	265000	144000	52100	93200	3120	1100	342	112
160 mg/kg, Male	184000	171000	243000	182000	150000	72700	29000	6990	5190	1050

concentration in plasma [ng/mL]
Settings	0 h	0.5 h	0.75 h	12 h
Rat [6]	28.8	–	76800	–
Rat [7]	–	66300	–	53.1

O=C(c1ccccc1)c1ccc(O)cc1O [2,4-Dihydroxybenzophenone]
Settings	concentration in plasma [ng/mL]
Mouse [8]	66.8
Mouse [9]	3760

concentration in plasma [ng/mL]
Settings	1 h	1.5 h	6 h	8 h
Rat [10]	1250	–	–	295
Rat [11]	176	–	41.8	–
Rat [12]	–	316	–	88.5

concentration in plasma, Mouse [2]
Settings	Female	Male
0.5 h, 50 mg/kg, iv	278 ng/mL	416 ng/mL
0.5 h, 100 mg/kg, oral	162 ng/mL	397 ng/mL
0.5 h, 250 mg/kg, oral	477 ng/mL	1840 ng/mL
0.5 h, 500 mg/kg, oral	2390 ng/mL	3720 ng/mL
0.75 h, 100 mg/kg, oral	80.4 ng/mL	220 ng/mL
1 h, 50 mg/kg, iv	80.5 ng/mL	308 ng/mL
1 h, 100 mg/kg, oral	67.4 ng/mL	266 ng/mL
1 h, 250 mg/kg, oral	173 ng/mL	377 ng/mL
1 h, 500 mg/kg, oral	863 ng/mL	1640 ng/mL
1.5 h, 50 mg/kg, iv	83.6 ng/mL	188 ng/mL
1.5 h, 100 mg/kg, oral	70 ng/mL	75.5 ng/mL
1.5 h, 250 mg/kg, oral	99.1 ng/mL	365 ng/mL
2.5 min, 250 mg/kg, oral	102 ng/mL	–
2.5 min, 500 mg/kg, oral	719 ng/mL	187 ng/mL
4 h, 50 mg/kg, iv	43.4 ng/mL	148 ng/mL
4 h, 100 mg/kg, oral	41.1 ng/mL	142 ng/mL
4 h, 250 mg/kg, oral	104 ng/mL	141 ng/mL
4 h, 500 mg/kg, oral	219 ng/mL	429 ng/mL
5 h, 100 mg/kg, oral	32.5 ng/mL	182 ng/mL
5 h, 250 mg/kg, oral	89.2 ng/mL	162 ng/mL
5 min, 50 mg/kg, iv	2940 ng/mL	4310 ng/mL
5 min, 100 mg/kg, oral	330 ng/mL	68.7 ng/mL
5 min, 250 mg/kg, oral	459 ng/mL	387 ng/mL
5 min, 500 mg/kg, oral	775 ng/mL	763 ng/mL
6 h, 50 mg/kg, iv	85.7 ng/mL	131 ng/mL
6 h, 100 mg/kg, oral	–	38.5 ng/mL
6 h, 250 mg/kg, oral	226 ng/mL	175 ng/mL
6 h, 500 mg/kg, oral	192 ng/mL	115 ng/mL
7 h, 250 mg/kg, oral	69.9 ng/mL	171 ng/mL
8 h, 50 mg/kg, iv	42.8 ng/mL	163 ng/mL
8 h, 500 mg/kg, oral	93.5 ng/mL	275 ng/mL
10 h, 500 mg/kg, oral	33.6 ng/mL	74.9 ng/mL
12 h, 50 mg/kg, iv	43.5 ng/mL	79.9 ng/mL
12 h, 500 mg/kg, oral	43.6 ng/mL and 71.2 ng/mL	239 ng/mL
16 h, 50 mg/kg, iv	66.8 ng/mL	116 ng/mL
16 h, 500 mg/kg, oral	52.7 ng/mL	42.3 ng/mL

concentration in plasma [ng/mL], Rat [3], dosed: 2-Hydroxy-4-methoxybenzophenone, F344
Settings	Female	Male
0.25 h, 8 mg/kg, iv	101	55.7
0.5 h, 8 mg/kg, iv	49.6	35.3
0.5 h, 250 mg/kg, oral	658	–
1 h, 8 mg/kg, iv	–	37.6
1 h, 100 mg/kg, oral	130	112
1 h, 250 mg/kg, oral	441	271
1 h, 500 mg/kg, oral	838	1430
1.5 h, 100 mg/kg, oral	68	76.7
1.5 h, 250 mg/kg, oral	347	157
2 h, 100 mg/kg, oral	87.9	59.8
2 h, 250 mg/kg, oral	190	179
2 h, 500 mg/kg, oral	326	385
3 h, 100 mg/kg, oral	–	62.9
3 h, 250 mg/kg, oral	–	81.1
4 h, 500 mg/kg, oral	244	–
5 min, 8 mg/kg, iv	96.6	91
5 min, 500 mg/kg, oral	81.7	–
6 h, 100 mg/kg, oral	49.4	50.8
6 h, 250 mg/kg, oral	108	67.4
6 h, 500 mg/kg, oral	285	–
8 h, 100 mg/kg, oral	79.9	33.1
8 h, 250 mg/kg, oral	68	78
8 h, 500 mg/kg, oral	234	266
10 h, 250 mg/kg, oral	103	–
10 h, 500 mg/kg, oral	–	264
10 min, 8 mg/kg, iv	131	79.9
16 h, 500 mg/kg, oral	118	57.9
